# Experimental data reported in the supplement of paper PMC8728848.
# The list shows a part of the results.
# B1: EULS2 M1 (Oryza sativa) (protein)
# chain: MVYCRANPNYAMTARNGAVVLAPANPKDEYQHWIKDMRWSTSIKDEEGYPAFALVNKATGQAIKHSLGQSHPVRLVPYNPEVMDESVLWTESRDVGNGFRCIRMVNNIYLNFDAFHGDKYHGGVRDGTDIVLWKLCEGDNQRWKIQPYYILEQKLISEEDLNSAVDHHHHHH
# Legend:
# Assay in all cases: glycan array binding signal (z-score within array); higher = stronger binding
# Conditions in all cases: glycan notation: IUPAC condensed, linker removed
# [1] = molecular target: Gal(b1-4)GlcNAc(b1-3)Gal(b1-4)GlcNAc(b1-6)[Gal(b1-3)]GalNAc
# Outline: (§1)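 Glycan array data came from 3228 arrays in the Consortium for Functional Glycomics database, and only arrays with an available protein sequence were kept. Glycan names were put into IUPAC-condensed notation, and columns mapping to the same glycan were averaged. The binding signal is a within-array Z-score, averaged across arrays of one protein sequence run at different concentrations or buffers and across linkers. A negative Z-score can be read as non-binding.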
# [2] = molecular target: Gal(b1-4)GlcNAc(b1-3)Gal(b1-4)[Fuc(a1-3)]GlcNAc(b1-3)Gal(b1-4)[Fuc(a1-3)]GlcNAc
# Outline: as §1
# [3] = molecular target: Gal(b1-4)GlcNAc(b1-3)GalNAc
# Outline: as §1
# [4] = molecular target: Gal(b1-4)GlcNAc(b1-3)[Fuc(a1-3)GlcNAc(b1-6)]Gal(b1-4)Glc
# Outline: as §1
# [5] = molecular target: Gal(b1-4)GlcNAc(b1-3)[Gal(b1-4)GlcNAc(b1-6)]Gal(b1-4)GlcNAc
# Outline: as §1
# [6] = molecular target: Gal(b1-4)GlcNAc(b1-3)[GlcNAc(b1-6)]Gal(b1-4)GlcNAc
# Outline: as §1
# [7] = molecular target: Gal(b1-4)GlcNAc(b1-6)Gal(b1-4)GlcNAc
# Outline: as §1
# [8] = molecular target: Gal(b1-4)GlcNAc(b1-6)GalNAc
# Outline: as §1
# [9] = molecular target: Gal(b1-4)GlcNAc(b1-6)[Gal(b1-3)]GalNAc
# Outline: as §1
# [10] = molecular target: Gal(b1-4)GlcNAc(b1-6)[Gal(b1-4)GlcNAc(b1-3)]GalNAc
# Outline: as §1
# [11] = molecular target: Gal(b1-4)GlcNAc6P
# Outline: as §1
# [12] = molecular target: Gal(b1-6)Gal
# Outline: as §1
# [13] = molecular target: Gal3S(b1-3)GalNAc
# Outline: as §1
# [14] = molecular target: Gal3S(b1-3)GlcNAc
# Outline: as §1
# [15] = molecular target: Gal3S(b1-3)[Fuc(a1-4)]GlcNAc
# Outline: as §1
# [16] = molecular target: Gal3S(b1-4)Glc
# Outline: as §1
# [17] = molecular target: Gal3S(b1-4)Glc6S
# Outline: as §1
# [18] = molecular target: Gal3S(b1-4)GlcNAc
# Outline: as §1
# [19] = molecular target: Gal3S(b1-4)[Fuc(a1-3)]Glc6S
# Outline: as §1
# [20] = molecular target: Gal3S(b1-4)[Fuc(a1-3)]GlcNAc
# Outline: as §1
# [21] = molecular target: Gal3S(b1-4)[Fuc(a1-3)]GlcNAc6S
# Outline: as §1
# [22] = molecular target: Gal3S4S(b1-4)GlcNAc
# Outline: as §1
# [23] = molecular target: Gal3S6S(b1-4)GlcNAc
# Outline: as §1
# [24] = molecular target: Gal3S6S(b1-4)GlcNAc6S
# Outline: as §1
# [25] = molecular target: Gal4S(b1-4)GlcNAc
# Outline: as §1
# [26] = molecular target: Gal4S6S(b1-4)GlcNAc
# Outline: as §1
# [27] = molecular target: Gal6P(b1-4)GlcNAc
# Outline: as §1
# [28] = molecular target: Gal6S(b1-3)GlcNAc
# Outline: as §1
# [29] = molecular target: Gal6S(b1-3)GlcNAc6S
# Outline: as §1
# [30] = molecular target: Gal6S(b1-4)Glc
# Outline: as §1
# [31] = molecular target: Gal6S(b1-4)Glc6S
# Outline: as §1
# [32] = molecular target: Gal6S(b1-4)GlcNAc
# Outline: as §1
# [33] = molecular target: Gal6S(b1-4)GlcNAc6S
# Outline: as §1
# [34] = molecular target: GalNAc(a1-3)Gal
# Outline: as §1
# [35] = molecular target: GalNAc(a1-3)GalNAc
# Outline: as §1
# [36] = molecular target: GalNAc(a1-3)GalNAc(b1-3)Gal(a1-4)Gal(b1-4)Glc
# Outline: as §1
# [37] = molecular target: GalNAc(a1-3)GalNAc(b1-3)Gal(a1-4)Gal(b1-4)GlcNAc
# Outline: as §1
# [38] = molecular target: GalNAc(b1-3)Gal
# Outline: as §1
# [39] = molecular target: GalNAc(b1-3)Gal(a1-4)Gal(b1-4)GlcNAc
# Outline: as §1
# [40] = molecular target: GalNAc(b1-3)Gal(a1-4)Gal(b1-4)GlcNAc(b1-3)Gal(b1-4)Glc
# Outline: as §1
# [41] = molecular target: GalNAc(b1-3)Gal(a1-6)Gal(b1-4)Glc
# Outline: as §1
# [42] = molecular target: GalNAc(b1-3)GalNAc
# Outline: as §1
# [43] = molecular target: GalNAc(b1-3)GlcNAc
# Outline: as §1
# [44] = molecular target: GalNAc(b1-4)Gal(b1-4)Glc
# Outline: as §1
# [45] = molecular target: GalNAc(b1-4)GlcNAc
# Outline: as §1
binder,measurement,setting,value
B1,glycan array binding signal (z-score),[1],-0.652
same,glycan array binding signal (z-score),[2],0.444
same,glycan array binding signal (z-score),[3],-0.156
same,glycan array binding signal (z-score),[4],-0.644
same,glycan array binding signal (z-score),[5],-2.68
same,glycan array binding signal (z-score),[6],-0.319
same,glycan array binding signal (z-score),[7],-0.514
same,glycan array binding signal (z-score),[8],0.271
same,glycan array binding signal (z-score),[9],-0.38
same,glycan array binding signal (z-score),[10],-0.195
same,glycan array binding signal (z-score),[11],-0.582
same,glycan array binding signal (z-score),[12],-0.634
same,glycan array binding signal (z-score),[13],-0.716
same,glycan array binding signal (z-score),[14],-0.552
same,glycan array binding signal (z-score),[15],-0.905
same,glycan array binding signal (z-score),[16],2.18
same,glycan array binding signal (z-score),[17],2.56
same,glycan array binding signal (z-score),[18],0.284
same,glycan array binding signal (z-score),[19],-0.12
same,glycan array binding signal (z-score),[20],-0.159
same,glycan array binding signal (z-score),[21],1.12
same,glycan array binding signal (z-score),[22],0.432
same,glycan array binding signal (z-score),[23],-2.07
same,glycan array binding signal (z-score),[24],0.355
same,glycan array binding signal (z-score),[25],-0.281
same,glycan array binding signal (z-score),[26],0.177
same,glycan array binding signal (z-score),[27],-0.322
same,glycan array binding signal (z-score),[28],-0.276
same,glycan array binding signal (z-score),[29],10.9
same,glycan array binding signal (z-score),[30],-0.316
same,glycan array binding signal (z-score),[31],0.372
same,glycan array binding signal (z-score),[32],-0.203
same,glycan array binding signal (z-score),[33],-0.128
same,glycan array binding signal (z-score),[34],0.063
same,glycan array binding signal (z-score),[35],-0.211
same,glycan array binding signal (z-score),[36],-0.43
same,glycan array binding signal (z-score),[37],0.139
same,glycan array binding signal (z-score),[38],-0.728
same,glycan array binding signal (z-score),[39],-0.544
same,glycan array binding signal (z-score),[40],0.014
same,glycan array binding signal (z-score),[41],2.84
same,glycan array binding signal (z-score),[42],-0.123
same,glycan array binding signal (z-score),[43],-0.213
same,glycan array binding signal (z-score),[44],0.195
same,glycan array binding signal (z-score),[45],-0.209

# Another view of some results above.
binder | measurement | setting | value
B1 | glycan array binding signal (z-score) | [23] | -2.07
same | glycan array binding signal (z-score) | [24] | 0.355
same | glycan array binding signal (z-score) | [25] | -0.281
